Measured values reported in article PMC12063664.
The exact form of at least one protein or probe is not confirmed. For part of these data: No signal at the amounts used counts as a negative. For part of these data: Where a protein sequence is shown, tags need not be part of it.

How the values were obtained:
[1] = tested on: NbARF18La-His-SUMO (Nicotiana benthamiana); assay: competition with a labelled probe; details: 10-, 20-, 50-fold excess over N4; EMSA: about 300 ng fusion protein with 30 ng biotin-labeled probe, Beyotime chemiluminescent EMSA kit; pH and temperature not stated; recombinant protein; protein details: His-SUMO (pET28a-SUMO)
[2] = target: T1, NbARF18Lb-MBP (Nicotiana benthamiana) (UniProt A0A1U7X7H4); assay: competition with a labelled probe; details: 10-, 20-, 50-fold excess over N4, reduced binding; EMSA: about 300 ng fusion protein with 30 ng biotin-labeled probe, Beyotime chemiluminescent EMSA kit; pH and temperature not stated; recombinant protein; protein details: MBP (pMAL-c5x)
T1 sequence (looked up, limits assumed): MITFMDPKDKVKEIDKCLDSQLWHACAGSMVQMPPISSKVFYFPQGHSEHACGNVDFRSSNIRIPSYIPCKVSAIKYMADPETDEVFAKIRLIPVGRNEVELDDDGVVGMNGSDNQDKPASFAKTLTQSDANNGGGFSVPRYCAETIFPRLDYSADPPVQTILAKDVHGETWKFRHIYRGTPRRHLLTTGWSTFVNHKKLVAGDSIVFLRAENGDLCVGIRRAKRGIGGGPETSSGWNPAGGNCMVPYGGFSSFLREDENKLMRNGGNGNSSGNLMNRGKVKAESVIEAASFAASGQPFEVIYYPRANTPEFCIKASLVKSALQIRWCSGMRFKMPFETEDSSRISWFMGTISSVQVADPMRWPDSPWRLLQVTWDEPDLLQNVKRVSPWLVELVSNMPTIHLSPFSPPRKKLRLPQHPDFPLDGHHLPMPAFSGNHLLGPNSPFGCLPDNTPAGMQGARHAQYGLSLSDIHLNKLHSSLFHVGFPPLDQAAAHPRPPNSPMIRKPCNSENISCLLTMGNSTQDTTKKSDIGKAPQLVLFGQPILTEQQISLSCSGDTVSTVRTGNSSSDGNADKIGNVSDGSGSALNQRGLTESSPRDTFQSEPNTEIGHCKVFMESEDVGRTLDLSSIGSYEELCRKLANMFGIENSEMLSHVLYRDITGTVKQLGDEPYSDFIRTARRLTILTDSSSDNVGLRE

[3] = tested on: NbMYB42-GST (Nicotiana benthamiana); assay: EMSA; details: EMSA: about 300 ng fusion protein with 30 ng biotin-labeled probe, Beyotime chemiluminescent EMSA kit; pH and temperature not stated; recombinant protein; protein details: GST (pGEX-6P-1); label: biotin
[4] = tested on: NbMYB42-GST (Nicotiana benthamiana); assay: competition with a labelled probe; details: 10-, 20-, 50-fold excess over N1, shifted band gradually disappeared; EMSA: about 300 ng fusion protein with 30 ng biotin-labeled probe, Beyotime chemiluminescent EMSA kit; pH and temperature not stated; recombinant protein; protein details: GST (pGEX-6P-1)
[5] = tested on: NbARF18La-His-SUMO (Nicotiana benthamiana); assay: EMSA; details: EMSA: about 300 ng fusion protein with 30 ng biotin-labeled probe, Beyotime chemiluminescent EMSA kit; pH and temperature not stated; recombinant protein; protein details: His-SUMO (pET28a-SUMO); label: biotin
[6] = target: T1, NbARF18Lb-MBP (Nicotiana benthamiana); assay: EMSA; details: EMSA: about 300 ng fusion protein with 30 ng biotin-labeled probe, Beyotime chemiluminescent EMSA kit; pH and temperature not stated; recombinant protein; protein details: MBP (pMAL-c5x); label: biotin

“GGACAATTTTTCTTTATTTTCTTTTTTGTCTCCAGTAAAATAACG (double strand) [NbMYB42 promoter P2 unlabeled competitor]”: binds [1]; binds [2].
“GTGAGGGTTGAAGAAAAAAAAAAAAAAAAAAGCCCGCTTACTTTTTTTGG (double strand) [NbPAL6 promoter P3 mutant probe (mProbe)]”: no binding [3].
“GTGAGGGTTGAAGGGTGGTTGTTGAGAGGAAGCCCGCTTACTTTTTTTGG (double strand) [NbPAL6 promoter P3 probe]”: binds [3].
“GTGAGGGTTGAAGGGTGGTTGTTGAGAGGAAGCCCGCTTACTTTTTTTGG (double strand) [NbPAL6 promoter P3 unlabeled competitor]”: binds [4].
“GGACAATTTTTCTTTATTTTCTTTTTTGTCTCCAGTAAAATAACG (double strand) [NbMYB42 promoter P2 probe]”: binds [5]; binds [6].
“GGACAATTTTTCTTTATTTTCTTTTTAAAAAACAGTAAAATAACG (double strand) [NbMYB42 promoter P2 mutant probe]”: no binding [5]; no binding [6].
